Values from PubChem BioAssay AID1259405 (NCATS, 2018).

Test: 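Knock-downs that lift recombinant protein yield in hamster ovary cells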 (primary screen)
Cells: Chinese hamster CHO-K1 ovary cells with stable secreted eGFP expression
Reagent: single siRNA against mouse genes, 0.8 pmol siRNA per well (2 µl of 400 nM stock)
Time to read-out: 3 days
Detection: 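Per-well intracellular GFP measured by laser scanning cytometry, plus viability from ATP luminescence, each relative to plate median of non-targeting control wells, in %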
Reading the numbers: GFP, % of control: higher = more GFP per well, higher productivity; viability (ATP), % of control: higher = more viable cells (more ATP)
Active means: 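a knock-down is called active if GFP reaches 120% or more of non-targeting control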
The deposit covers about 50,000 reagents; below is a part drawn at random. About 4,000 of them (8%) were called active. 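Mouse siRNA library applied to hamster cells; one well for each siRNA.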 Reagents against one gene are numbered here. Reagent sequences are not shown.

| Target gene | siRNA no. | GFP, % of control | viability (ATP), % of control | call |
| --- | --- | --- | --- | --- |
| Gsdmd | 1 | 0 | 316 | inactive |
| Gsdmd | 2 | 32.9 | 27.5 | inactive |
| Gsdmd | 3 | 73.3 | 61.6 | inactive |
| Rab13 | 1 | 173 | 144 | active |
| Rab13 | 2 | 87.4 | 85.8 | inactive |
| Rab13 | 3 | 59.6 | 91.2 | inactive |
| Islr2 | 1 | 31.9 | 61.9 | inactive |
| Islr2 | 2 | 76.4 | 55.8 | inactive |
| Islr2 | 3 | 35.2 | 49.5 | inactive |
| Comt | 1 | 117 | 100 | inactive |
| Comt | 2 | 73.3 | 135 | inactive |
| Comt | 3 | 106 | 98.3 | inactive |
| Ppfia3 | 1 | 45.5 | 44.3 | inactive |
| Ppfia3 | 2 | 95.8 | 76.8 | inactive |
| Ppfia3 | 3 | 87.8 | 73 | inactive |
| Pop7 | 1 | 87.2 | 62.3 | inactive |
| Pop7 | 2 | 99.1 | 89.7 | inactive |
| Pop7 | 3 | 76 | 83.3 | inactive |
| Zfp280b | 1 | 133 | 123 | active |
| Zfp280b | 2 | 79.6 | 70.4 | inactive |
| Zfp280b | 3 | 69.3 | 60.8 | inactive |
| Slc6a12 | 1 | 53.4 | 48.7 | inactive |
| Slc6a12 | 2 | 50.6 | 53.2 | inactive |
| Slc6a12 | 3 | 193 | 96.5 | active |
| St8sia1 | 1 | 58.4 | 73.3 | inactive |
| St8sia1 | 2 | 92.2 | 71 | inactive |
| St8sia1 | 3 | 81.7 | 79.9 | inactive |
| Acer2 | 1 | 90.7 | 115 | inactive |
| Acer2 | 2 | 60.6 | 55.4 | inactive |
| Acer2 | 3 | 122 | 102 | active |
| Phtf1 | 1 | 81.8 | 101 | inactive |
| Phtf1 | 2 | 96.4 | 67.1 | inactive |
| Phtf1 | 3 | 75 | 83.9 | inactive |
| Mzb1 | 1 | 150 | 75.6 | active |
| Mzb1 | 2 | 78.7 | 79.7 | inactive |
| Mzb1 | 3 | 45.7 | 70.6 | inactive |
| Tmem45a | 1 | 116 | 119 | inactive |
| Tmem45a | 2 | 91 | 60.8 | inactive |
| Tmem45a | 3 | 109 | 158 | inactive |
| Tmem38b | 1 | 94.5 | 83.4 | inactive |
| Tmem38b | 2 | 63.5 | 76.3 | inactive |
| Tmem38b | 3 | 88.9 | 84.3 | inactive |
| Ap1s3 | 1 | 79.1 | 70.5 | inactive |
| Ap1s3 | 2 | 90.7 | 98.5 | inactive |
| Ap1s3 | 3 | 87 | 73.9 | inactive |

6 entries from above, reformatted:
Target gene	siRNA no.	GFP, % of control	viability (ATP), % of control	call
Slc6a12	2	50.6	53.2	inactive
Slc6a12	3	193	96.5	active
St8sia1	1	58.4	73.3	inactive
St8sia1	2	92.2	71	inactive
St8sia1	3	81.7	79.9	inactive
Acer2	1	90.7	115	inactive

Next entries:
| Target gene | siRNA no. | GFP, % of control | viability (ATP), % of control | call |
| --- | --- | --- | --- | --- |
| Trim28 | 1 | 64 | 75.3 | inactive |
| Trim28 | 2 | 65.1 | 41.5 | inactive |
| Twf2 | 1 | 43 | 34.9 | inactive |
| Twf2 | 2 | 58.5 | 60.2 | inactive |
| Mrm2 | 1 | 84.1 | 104 | inactive |
| Mrm2 | 2 | 58.5 | 65.9 | inactive |
| Mrm2 | 3 | 57.9 | 69.4 | inactive |
| Psmd1 | 1 | 6.37 | 5.23 | inactive |
| Psmd1 | 2 | 6.81 | 2.11 | inactive |
| Psmd1 | 3 | 19.5 | 26.4 | inactive |
| Cmas | 1 | 106 | 105 | inactive |
| Cmas | 2 | 121 | 112 | active |
| Cmas | 3 | 129 | 136 | active |
| H2-T10 | 1 | 62.5 | 68.5 | inactive |
| H2-T10 | 2 | 58.5 | 43 | inactive |
| H2-T10 | 3 | 77.4 | 53.2 | inactive |
| Coro7 | 1 | 69.2 | 49.1 | inactive |
| Coro7 | 2 | 74.3 | 90.2 | inactive |
| Coro7 | 3 | 30.6 | 68.2 | inactive |
| Mospd1 | 1 | 97.5 | 64.6 | inactive |
| Mospd1 | 2 | 65.2 | 48.7 | inactive |
| Mospd1 | 3 | 61.9 | 42 | inactive |
| Or4q3 | 1 | 68.1 | 71.9 | inactive |
| Or4q3 | 2 | 71.5 | 60 | inactive |
| Or4q3 | 3 | 84 | 107 | inactive |
| Dag1 | 1 | 126 | 102 | active |
| Dag1 | 2 | 63.2 | 57.7 | inactive |
| Dag1 | 3 | 186 | 90.7 | active |
| Masp1 | 1 | 58 | 102 | inactive |
| Masp1 | 2 | 104 | 60.6 | inactive |
| Masp1 | 3 | 75.8 | 88.9 | inactive |
| Arf6 | 1 | 115 | 87.1 | inactive |
| Arf6 | 2 | 77.5 | 47.6 | inactive |
| Arf6 | 3 | 85.8 | 92 | inactive |
| Ctsk | 1 | 40.6 | 49 | inactive |
| Ctsk | 2 | 55.1 | 20.2 | inactive |
| Ctsk | 3 | 36.3 | 32.2 | inactive |
| Hoxb7 | 1 | 112 | 67 | inactive |
| Hoxb7 | 2 | 90.1 | 73.9 | inactive |
| Hoxb7 | 3 | 87.7 | 108 | inactive |
